Test results as given in US20230287044A1 (priority 2020, published 2023).

assay: general procedure: Fmoc solid-phase peptide synthesis; Rink-amide-MBHA resin; diisopropylcarbodiimide and 1-hydroxybenzotriazole; settings: whole synthesis

Going from “H-[dR][dR][dR][dW][dI][dW][dV][dL][dW][dK]-NH2 (N-terminus assumed; SMILES CC[C@@H](C)[C@@H](NC(=O)[C@@H](Cc1c[nH]c2ccccc12)NC(=O)[C@@H](CCCNC(=N)N)NC(=O)[C@@H](CCCNC(=N)N)NC(=O)[C@H](N)CCCNC(=N)N)C(=O)N[C@H](Cc1c[nH]c2ccccc12)C(=O)N[C@@H](C(=O)N[C@H](CC(C)C)C(=O)N[C@H](Cc1c[nH]c2ccccc12)C(=O)N[C@H](CCCCN)C(N)=O)C(C)C)” to “H-[dW][dL][dV][dW][dI][dW][dR][dR][dQ][dR]-NH2 (N-terminus assumed; SMILES CC[C@@H](C)[C@@H](NC(=O)[C@@H](Cc1c[nH]c2ccccc12)NC(=O)[C@H](NC(=O)[C@@H](CC(C)C)NC(=O)[C@H](N)Cc1c[nH]c2ccccc12)C(C)C)C(=O)N[C@H](Cc1c[nH]c2ccccc12)C(=O)N[C@H](CCCNC(=N)N)C(=O)N[C@H](CCCNC(=N)N)C(=O)N[C@H](CCC(N)=O)C(=O)N[C@H](CCCNC(=N)N)C(N)=O)”, the “purity (crude or final not stated)” value rises from 98.707% to 98.882%.

First: H-[dW][dL][dV][dW][dI][dW][dR][dR][dR]-NH2 (N-terminus assumed; SMILES CC[C@@H](C)[C@@H](NC(=O)[C@@H](Cc1c[nH]c2ccccc12)NC(=O)[C@H](NC(=O)[C@@H](CC(C)C)NC(=O)[C@H](N)Cc1c[nH]c2ccccc12)C(C)C)C(=O)N[C@H](Cc1c[nH]c2ccccc12)C(=O)N[C@H](CCCNC(=N)N)C(=O)N[C@H](CCCNC(=N)N)C(=O)N[C@H](CCCNC(=N)N)C(N)=O)
Second: WLAWLYLRKKR
The “purity (crude or final not stated)” value of the first is higher: 98.784% for the first, 98.728% for the second.

Compared with WLLWLYARKKR, WLLWVYVRKKR is lower in “purity (crude or final not stated)” value: 97.372% for the first, 77.714% for the second.

Going from WLVYVWLRKKR to WLWVWVRKKR, the “purity (crude or final not stated)” value falls from 98.361% to 98.155%.

With WVVWVYVRKKR the “purity (crude or final not stated)” value was 98.372%.

Plain letter strings leave the end groups untold. Square brackets hold non-standard residues; d marks the D form.
